For assay [1], the target named is T1, P2 peptide comprising SEQ ID NO: 31 (human fibrin γ377-395) (human).
T1 sequence (peptide): YSMKKTTMKIIPFNRLTIG
The assay is described as follows: SPR (Biacore) single cycle, steady state.

Assay [2] shares this target. Put plainly: SPR (Biacore), single cycle kinetics, antibody from HEK supernatant captured on anti-human chip, fibrin peptide γ377-395 as analyte, steady state fit. On the technique in general: SPR reads the build-up and loss of mass on a sensor chip optically.
Assay [3] deals with T2, fibrin(ogen) accumulated in spinal cord lesions of mice with chronic EAE (mouse) (UniProt E9PV24+Q8K0E8+Q8VCM7).
T2 sequence (looked up) 1: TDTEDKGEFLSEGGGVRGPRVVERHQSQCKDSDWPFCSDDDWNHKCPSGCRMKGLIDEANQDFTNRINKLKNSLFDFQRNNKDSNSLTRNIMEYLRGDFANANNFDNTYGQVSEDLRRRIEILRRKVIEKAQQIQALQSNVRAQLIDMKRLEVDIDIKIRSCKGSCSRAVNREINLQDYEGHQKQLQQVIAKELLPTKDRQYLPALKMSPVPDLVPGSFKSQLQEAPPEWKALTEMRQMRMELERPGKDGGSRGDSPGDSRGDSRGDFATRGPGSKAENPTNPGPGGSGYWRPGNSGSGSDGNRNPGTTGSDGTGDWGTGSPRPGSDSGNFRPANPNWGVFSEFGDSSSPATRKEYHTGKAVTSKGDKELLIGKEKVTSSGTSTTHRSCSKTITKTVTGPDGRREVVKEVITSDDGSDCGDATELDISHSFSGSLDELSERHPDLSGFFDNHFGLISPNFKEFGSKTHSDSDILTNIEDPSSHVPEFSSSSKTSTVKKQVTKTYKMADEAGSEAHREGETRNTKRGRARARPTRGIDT
T2 sequence (looked up) 2: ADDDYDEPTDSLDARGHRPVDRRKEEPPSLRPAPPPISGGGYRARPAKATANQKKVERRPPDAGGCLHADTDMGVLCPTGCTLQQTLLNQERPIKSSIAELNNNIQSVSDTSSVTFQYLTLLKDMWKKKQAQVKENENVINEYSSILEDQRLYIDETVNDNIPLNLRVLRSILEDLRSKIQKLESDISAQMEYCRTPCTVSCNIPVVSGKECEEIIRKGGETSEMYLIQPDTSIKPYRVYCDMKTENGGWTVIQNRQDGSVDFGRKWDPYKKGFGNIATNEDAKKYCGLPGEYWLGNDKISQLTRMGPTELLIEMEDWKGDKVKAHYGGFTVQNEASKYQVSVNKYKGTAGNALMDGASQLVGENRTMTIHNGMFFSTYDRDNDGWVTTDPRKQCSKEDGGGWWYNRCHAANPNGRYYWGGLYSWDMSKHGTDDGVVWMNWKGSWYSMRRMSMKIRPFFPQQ
T2 sequence (looked up) 3: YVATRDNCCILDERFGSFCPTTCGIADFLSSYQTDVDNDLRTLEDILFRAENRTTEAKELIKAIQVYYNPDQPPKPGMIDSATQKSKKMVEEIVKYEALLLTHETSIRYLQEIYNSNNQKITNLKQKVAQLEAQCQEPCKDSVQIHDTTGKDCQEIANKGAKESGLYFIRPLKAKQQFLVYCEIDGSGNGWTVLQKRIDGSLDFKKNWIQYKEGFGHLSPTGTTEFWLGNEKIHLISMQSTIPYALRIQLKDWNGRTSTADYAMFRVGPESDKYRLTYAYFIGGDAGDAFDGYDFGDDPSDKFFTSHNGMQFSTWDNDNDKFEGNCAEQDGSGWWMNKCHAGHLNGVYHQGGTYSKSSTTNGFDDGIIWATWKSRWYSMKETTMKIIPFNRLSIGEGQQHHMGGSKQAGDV
Put plainly: fluorescence staining of spinal cord sections of chronic EAE mice with VH5 C102G/VK2-biotin and CY3-streptavidin, beside a fibrinogen stain.

The target of assay [4] is T2, fibrin(ogen) accumulated in spinal cord lesions of mice with chronic EAE (mouse). The assay is described as follows: staining of spinal cord sections of chronic EAE mice with VH5 C102G/Vκ2-biotin and CY3-streptavidin.

Results are given in words; binding and its absence hold for the method and conditions named. Some binding calls cover weakened binding; strength is not graded here.

B1: VH4 C102A/VK2 (antibody, IgG1, V domains shown)
VH: QVQLVQSGAEVKKPGSSVKVSCKASGYTFTSYWIHWVRQAPGQGLEWIGLIDPSDSYTNYNQKFRGRVTITVDTSTSTAYMELSSLRSEDTAVYYCASSDPTGAWGQGTTVTVSS
VL: DIVMTQAAFSNPVTPGTPASISCRSSKSLLHSSGITYLSWYLQKPGQSPQLLIYQMSNLASGVPDRFSSSGSGTDFTLKISRVEAEDVGVYYCAQNLELPLTFGQGTKLEIK
notes: IgG1, tested from HEK supernatant
With B1, the binding entry in assay [1] and in assay [2] was “binds” throughout.

B2: humanized anti-fibrin antibody variant VH5 C102G/VK2 (antibody, IgG1, V domains shown)
VH: QVQLVQSGAEVKKPGSSVKVSCKASGYTFTSYWIHWVRQAPGQGLEWIGLIDPSDSYTNYNQKFRGRVTITRDTSTSTAYMELSSLRSEDTAVYYCASSDPTGGWGQGTTVTVSS
VL: DIVMTQAAFSNPVTPGTPASISCRSSKSLLHSSGITYLSWYLQKPGQSPQLLIYQMSNLASGVPDRFSSSGSGTDFTLKISRVEAEDVGVYYCAQNLELPLTFGQGTKLEIK
notes: IgG1, tested from HEK supernatant in the SPR assay; also called VH5 C102G/Vκ2; VH5-102G
As to B2, the binding entry in assay [3] and in assay [4] was “binds” throughout.

B3: VH5 C102V/VK2 (antibody, IgG1, V domains shown)
VH: QVQLVQSGAEVKKPGSSVKVSCKASGYTFTSYWIHWVRQAPGQGLEWIGLIDPSDSYTNYNQKFRGRVTITRDTSTSTAYMELSSLRSEDTAVYYCASSDPTGVWGQGTTVTVSS
VL: DIVMTQAAFSNPVTPGTPASISCRSSKSLLHSSGITYLSWYLQKPGQSPQLLIYQMSNLASGVPDRFSSSGSGTDFTLKISRVEAEDVGVYYCAQNLELPLTFGQGTKLEIK
notes: IgG1, tested from HEK supernatant; also called VH5-102V
For B3, the binding result in assay [1] and in assay [2] was “binds” each time.

B4: VH4 C102V/VK2 (antibody, IgG1, V domains shown)
VH: QVQLVQSGAEVKKPGSSVKVSCKASGYTFTSYWIHWVRQAPGQGLEWIGLIDPSDSYTNYNQKFRGRVTITVDTSTSTAYMELSSLRSEDTAVYYCASSDPTGVWGQGTTVTVSS
VL: DIVMTQAAFSNPVTPGTPASISCRSSKSLLHSSGITYLSWYLQKPGQSPQLLIYQMSNLASGVPDRFSSSGSGTDFTLKISRVEAEDVGVYYCAQNLELPLTFGQGTKLEIK
notes: IgG1, tested from HEK supernatant; also called VH4-102V
Regarding B4, the binding result in assay [1] and in assay [2] was “binds” each time.

B5: VH4 C102S/VK2 (antibody, IgG1, V domains shown)
VH: QVQLVQSGAEVKKPGSSVKVSCKASGYTFTSYWIHWVRQAPGQGLEWIGLIDPSDSYTNYNQKFRGRVTITVDTSTSTAYMELSSLRSEDTAVYYCASSDPTGSWGQGTTVTVSS
VL: DIVMTQAAFSNPVTPGTPASISCRSSKSLLHSSGITYLSWYLQKPGQSPQLLIYQMSNLASGVPDRFSSSGSGTDFTLKISRVEAEDVGVYYCAQNLELPLTFGQGTKLEIK
notes: as for B1
B5: the binding result in assay [1] and in assay [2] was “binds” each time.

B6: VH4 C102L/VK2 (antibody, IgG1, V domains shown)
VH: QVQLVQSGAEVKKPGSSVKVSCKASGYTFTSYWIHWVRQAPGQGLEWIGLIDPSDSYTNYNQKFRGRVTITVDTSTSTAYMELSSLRSEDTAVYYCASSDPTGLWGQGTTVTVSS
VL: DIVMTQAAFSNPVTPGTPASISCRSSKSLLHSSGITYLSWYLQKPGQSPQLLIYQMSNLASGVPDRFSSSGSGTDFTLKISRVEAEDVGVYYCAQNLELPLTFGQGTKLEIK
notes: IgG1, tested from HEK supernatant; also called VH4-102L
For B6, the binding entry in assay [1] and in assay [2] was “binds” throughout.

B7: VH5 C102S/VK2 (antibody, IgG1, V domains shown)
VH: QVQLVQSGAEVKKPGSSVKVSCKASGYTFTSYWIHWVRQAPGQGLEWIGLIDPSDSYTNYNQKFRGRVTITRDTSTSTAYMELSSLRSEDTAVYYCASSDPTGSWGQGTTVTVSS
VL: DIVMTQAAFSNPVTPGTPASISCRSSKSLLHSSGITYLSWYLQKPGQSPQLLIYQMSNLASGVPDRFSSSGSGTDFTLKISRVEAEDVGVYYCAQNLELPLTFGQGTKLEIK
notes: as for B1
For the molecule B7, the binding entry in assay [1] and in assay [2] was “binds” each time.

B8: VH5 C102L/VK2 (antibody, IgG1, V domains shown)
VH: QVQLVQSGAEVKKPGSSVKVSCKASGYTFTSYWIHWVRQAPGQGLEWIGLIDPSDSYTNYNQKFRGRVTITRDTSTSTAYMELSSLRSEDTAVYYCASSDPTGLWGQGTTVTVSS
VL: DIVMTQAAFSNPVTPGTPASISCRSSKSLLHSSGITYLSWYLQKPGQSPQLLIYQMSNLASGVPDRFSSSGSGTDFTLKISRVEAEDVGVYYCAQNLELPLTFGQGTKLEIK
notes: IgG1, tested from HEK supernatant; also called VH5-102L
With B8, the binding result in assay [1] and in assay [2] was “binds” in each case.

B9: VH4 C102T/VK2 (antibody, IgG1, V domains shown)
VH: QVQLVQSGAEVKKPGSSVKVSCKASGYTFTSYWIHWVRQAPGQGLEWIGLIDPSDSYTNYNQKFRGRVTITVDTSTSTAYMELSSLRSEDTAVYYCASSDPTGTWGQGTTVTVSS
VL: DIVMTQAAFSNPVTPGTPASISCRSSKSLLHSSGITYLSWYLQKPGQSPQLLIYQMSNLASGVPDRFSSSGSGTDFTLKISRVEAEDVGVYYCAQNLELPLTFGQGTKLEIK
notes: as for B1
As to B9, the binding entry in assay [1] and in assay [2] was “binds” each time.

B10: VH5 C102A/VK2 (antibody, IgG1, V domains shown)
VH: QVQLVQSGAEVKKPGSSVKVSCKASGYTFTSYWIHWVRQAPGQGLEWIGLIDPSDSYTNYNQKFRGRVTITRDTSTSTAYMELSSLRSEDTAVYYCASSDPTGAWGQGTTVTVSS
VL: DIVMTQAAFSNPVTPGTPASISCRSSKSLLHSSGITYLSWYLQKPGQSPQLLIYQMSNLASGVPDRFSSSGSGTDFTLKISRVEAEDVGVYYCAQNLELPLTFGQGTKLEIK
notes: as for B1
As to B10, the binding result in assay [1] and in assay [2] was “binds” throughout.

Values taken from patent US20240279357A1 (THERINI BIO, published 2024).
